PubChem BioAssay AID1259254 – NCATS | 2017

- Aim: 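Gene knock-downs that lead to re-replication, shown by excess G2 DNA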 (primary screen)
- Cells: human HCT116 colorectal cancer cells
- Reagents: single siRNA against human genes
- Time to read-out: 3 days
- Detection: 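Imaged Hoechst DNA stain sorts each cell into a cycle phase by DNA amount; per plate, G2 fraction set to 0% for non-targeting and 100% for GMNN siRNA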
- Direction: G2 robust z-score: higher = more G2 cells, more excess DNA replication
- Hit rule: 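An siRNA counts as active if its G2 robust z-score lies at least 5 MADs above the screen median; here such calls match roughly 38% of GMNN control or more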
This is a random part of about 59,000 reagents tested. About 1,550 of them (2.6%) were called active. 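G2 share is only a proxy for re-replication; each gene was hit by three separate siRNAs, and active genes were retested.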 Reagents against one gene are numbered here. Not all columns of the deposit are shown. No sequences are given here. Not given: the amount of reagent.

Depletion of RPL18A (ribosomal protein L18a) #1 resulted in: G2 robust z-score 1.71; inactive.
For RPL18A (ribosomal protein L18a) #2, the entry reads G2 robust z-score 5.64; active.
For RPL18A (ribosomal protein L18a) #3 the deposit lists G2 robust z-score 4.53; inactive.
PRPF6 (pre-mRNA processing factor 6) #1 scored G2 robust z-score 0.42; inactive.
After knock-down of PRPF6 (pre-mRNA processing factor 6) #2 the results were G2 robust z-score 0.261; inactive.
Against PRPF6 (pre-mRNA processing factor 6) #3 the deposit lists G2 robust z-score 2.37; inactive.

Entries listed so far whose gene name starts with R or r:
RPL18A (ribosomal protein L18a) #1 | G2 robust z-score = 1.71; call = inactive
RPL18A (ribosomal protein L18a) #2 | G2 robust z-score = 5.64; call = active
RPL18A (ribosomal protein L18a) #3 | G2 robust z-score = 4.53; call = inactive

Next results follow:
With knock-down of SPTLC3 (serine palmitoyltransferase long chain base subunit 3) #1 the results were G2 robust z-score -0.198; inactive.
Against SPTLC3 (serine palmitoyltransferase long chain base subunit 3) #2 the deposit lists G2 robust z-score -0.0867; inactive.
Against SPTLC3 (serine palmitoyltransferase long chain base subunit 3) #3 the deposit lists G2 robust z-score 2.56; inactive.
With knock-down of STAC3 (SH3 and cysteine rich domain 3) #1 the results were G2 robust z-score 2.58; inactive.
Knock-down of STAC3 (SH3 and cysteine rich domain 3) #2 gave: G2 robust z-score -0.771; inactive.
STAC3 (SH3 and cysteine rich domain 3) #3 gave G2 robust z-score 0.632; inactive.
PRTN3 (proteinase 3) #1 gave G2 robust z-score -1.63; inactive.
PRTN3 (proteinase 3) #2 showed G2 robust z-score 4.84; inactive.
After knock-down of PRTN3 (proteinase 3) #3, the record shows G2 robust z-score 0.395; inactive.
With knock-down of POP1 (POP1 ribonuclease P/MRP subunit) #1 the results were G2 robust z-score -0.348; inactive.
After knock-down of POP1 (POP1 ribonuclease P/MRP subunit) #2 the results were G2 robust z-score 2.43; inactive.
Knock-down of POP1 (POP1 ribonuclease P/MRP subunit) #3 resulted in: G2 robust z-score 5.39; active.
